{"sequences": {"note": "By UniProt entry, the sequences of proteins in these tests, tags left out. Residues count along the entry.", "UniProt P43220, 24-463 limits assumed": "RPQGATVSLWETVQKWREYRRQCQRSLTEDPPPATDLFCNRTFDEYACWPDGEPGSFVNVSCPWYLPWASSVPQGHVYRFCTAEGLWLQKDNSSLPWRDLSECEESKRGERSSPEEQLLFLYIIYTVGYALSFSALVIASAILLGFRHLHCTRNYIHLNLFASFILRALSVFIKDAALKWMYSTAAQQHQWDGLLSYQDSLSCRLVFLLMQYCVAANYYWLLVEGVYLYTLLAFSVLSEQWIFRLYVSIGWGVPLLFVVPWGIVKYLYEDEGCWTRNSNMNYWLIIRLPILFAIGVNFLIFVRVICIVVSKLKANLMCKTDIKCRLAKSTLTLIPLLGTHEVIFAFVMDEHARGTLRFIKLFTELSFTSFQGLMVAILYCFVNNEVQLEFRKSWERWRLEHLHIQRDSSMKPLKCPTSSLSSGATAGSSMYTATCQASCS"}, "source": "patent US11702404B2", "about": "“GLP-1R modulating compounds” (priority 2019, dated 2023)", "key": {"GLP-1R": {"biological_target": "GLP-1R (Homo sapiens, UniProt P43220)", "test": "GLP-1R activation: cAMP increase in CHO cells stably expressing GLP-1R", "type": "cell-based", "conditions": "10 point dose response, 30 minutes incubation"}, "[1]": {"test": "Microsomal stability, human liver microsomes (predicted hepatic clearance)", "conditions": "predicted from in vitro microsomal stability data"}}, "note": "The match of structure and compound is tentative."}
{"smiles": "N#Cc1ccc(COc2cccc(-c3ccc(Cc4nc5c(I)cc(C(=O)O)cc5n4CC4(CF)CC4)c(F)c3)n2)c(F)c1", "values": [{"measurement": "EC50", "setting": "GLP-1R", "result": 1.7, "unit": "nM"}, {"measurement": "Predicted Hepatic Clearance (Pred. Cl.)", "setting": "[1]", "result": 6.33, "unit": "mL/min/kg"}]}
